Values from PubChem BioAssay AID1259405 (NCATS, 2018)
This is one part, drawn at random, of about 50,000 reagents tested. Over the whole deposit, about 4,000 (8%) are marked active. 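Mouse siRNA library applied to hamster cells; one well for each siRNA.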 A number with no mark means an inactive call. Reagents against one gene are numbered here. Further read-outs or replicates are left out here. Reagent sequences are not shown.

Assay: 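Mouse-designed siRNAs used to find CHO productivity engineering targets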 (primary screen)
System: Chinese hamster CHO-K1 ovary cells with stable secreted eGFP expression
Knock-down reagent: single siRNA against mouse genes, 0.8 pmol siRNA per well (2 µl of 400 nM stock)
Duration: 3 days
Read-out: 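Percent of the per-plate non-targeting control median for intracellular GFP per well by laser scanning cytometry and for cell viability by ATP luminescence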
Direction: GFP, % of control: higher = more GFP per well, higher productivity
Rule for the call: 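a knock-down is called active if GFP reaches 120% or more of non-targeting control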

GFP, % of control, by target and reagent
Prkab2: #1 63.2; #2 82.2
Atxn2l: #1 75.2; #2 89.2; #3 73.3
Pgbd5: #1 94.5; #2 76.6; #3 60.8
Fv1: #1 89.9; #2 70.6; #3 80.7
Lysmd3: #1 56.7; #2 73; #3 69.9
Defb28: #1 41.3; #2 89; #3 68.2
Grid1: #1 50.7; #2 68.5; #3 44.4
Ifna16: #1 50.5; #2 85.8; #3 86.3
Or13l2: #1 48.3; #2 92; #3 57.3
Dcun1d3: #1 43; #2 55.4; #3 93.9
Dap: #1 90.8; #2 75.8; #3 69.3
Dctn2: #1 88.1; #2 85.1; #3 30.1
Cga: #1 56; #2 88.8; #3 62.8
Dele1: #1 140 (active); #2 56.8; #3 104
Pcdhga4: #1 90.7; #2 124 (active)
Epc1: #1 125 (active); #2 77.3; #3 64.8
BC002059: #1 71.8; #2 55.9; #3 72.9
Fbxo36: #1 69; #2 118; #3 63.6
Tmem231: #1 72.4; #2 21; #3 120 (active)

Copied from the list:
For “GFP, % of control”, Tmem231 #2 has 21
Ifna16 #2, GFP, % of control = 85.8
Result for Lysmd3 #2 under “GFP, % of control”: 73
Epc1 #3, GFP, % of control: 64.8
Dele1 #3, GFP, % of control → 104
Entry of Dap #2 in “GFP, % of control”: 75.8

Further records:
GFP, % of control, by target and reagent
Dnase1l2: #1 62.1; #2 96.5; #3 76.3
Olfml1: #1 98.1; #2 82.8; #3 66.9
Slfn9: #1 89.6; #2 92; #3 77
Hdgfl1: #1 19.7; #2 51.4; #3 84.2
Ykt6: #1 83.7; #2 75.4; #3 76
Irag1: #1 87; #2 76.1; #3 78.3
Serpinb8: #1 112; #2 53.6; #3 88
Nupr2: #1 145 (active); #2 84.6; #3 72.6
Or5al1: #1 81.9; #2 71.7; #3 66.7
Cer1: #1 81.8; #2 102; #3 80.7
